Measured values: publication doi:10.1101/2025.04.28.651057
Results are given in words; binding and its absence hold for the method and conditions named. Binding seen in cells or lysates may run through a third protein. Some entries that bind do so weakly or less than the wild type. For some of these results: Tags and fused reporters may be left off the sequences shown.

The chains behind the UniProt entries cited, without tags or fusion partners. Where a name states a change or a piece, a line headed by the entry shows the natural chain unless it says otherwise.
UniProt Q8VDZ4, whole entry: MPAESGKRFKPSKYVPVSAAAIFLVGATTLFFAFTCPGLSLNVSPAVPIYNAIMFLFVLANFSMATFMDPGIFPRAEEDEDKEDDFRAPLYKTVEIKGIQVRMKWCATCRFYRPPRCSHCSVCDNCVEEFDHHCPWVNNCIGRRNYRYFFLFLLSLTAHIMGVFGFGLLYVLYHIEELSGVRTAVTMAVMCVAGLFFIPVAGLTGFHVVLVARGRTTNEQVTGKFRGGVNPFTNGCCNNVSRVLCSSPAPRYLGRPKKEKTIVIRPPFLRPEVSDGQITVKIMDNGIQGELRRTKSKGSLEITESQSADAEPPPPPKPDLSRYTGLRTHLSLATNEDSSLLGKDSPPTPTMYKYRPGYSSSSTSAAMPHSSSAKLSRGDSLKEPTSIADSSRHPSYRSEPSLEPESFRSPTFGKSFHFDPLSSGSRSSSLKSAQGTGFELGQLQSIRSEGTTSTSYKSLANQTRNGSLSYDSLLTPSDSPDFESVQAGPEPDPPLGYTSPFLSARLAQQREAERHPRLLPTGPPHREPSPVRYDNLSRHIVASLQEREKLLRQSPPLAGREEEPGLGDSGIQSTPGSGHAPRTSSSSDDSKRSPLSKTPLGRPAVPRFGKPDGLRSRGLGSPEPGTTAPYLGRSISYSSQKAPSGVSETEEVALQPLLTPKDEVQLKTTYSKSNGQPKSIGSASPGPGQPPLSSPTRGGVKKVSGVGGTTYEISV
UniProt Q7Z5G4, whole entry: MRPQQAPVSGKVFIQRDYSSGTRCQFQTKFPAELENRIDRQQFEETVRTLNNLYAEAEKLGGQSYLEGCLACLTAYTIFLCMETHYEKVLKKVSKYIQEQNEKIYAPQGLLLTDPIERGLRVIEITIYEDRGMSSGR

How the values were obtained:
Experiment in all cases: co-IP
[1] = molecular target: T1, HA-Zdhhc11 (mouse) (mouse) (UniProt Q14AK4)
T1 sequence: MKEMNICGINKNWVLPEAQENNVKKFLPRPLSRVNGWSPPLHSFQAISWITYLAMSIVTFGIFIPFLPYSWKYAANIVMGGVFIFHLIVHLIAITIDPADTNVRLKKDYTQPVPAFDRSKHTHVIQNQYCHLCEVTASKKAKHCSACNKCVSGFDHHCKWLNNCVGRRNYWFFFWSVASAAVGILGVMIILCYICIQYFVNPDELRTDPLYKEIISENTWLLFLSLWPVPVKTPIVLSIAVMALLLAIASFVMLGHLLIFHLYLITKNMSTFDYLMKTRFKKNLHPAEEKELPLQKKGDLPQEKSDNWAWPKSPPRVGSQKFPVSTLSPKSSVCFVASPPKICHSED

[2] = molecular target: T2, HA-Zdhhc23 (mouse) (mouse) (UniProt Q5Y5T3)
T2 sequence: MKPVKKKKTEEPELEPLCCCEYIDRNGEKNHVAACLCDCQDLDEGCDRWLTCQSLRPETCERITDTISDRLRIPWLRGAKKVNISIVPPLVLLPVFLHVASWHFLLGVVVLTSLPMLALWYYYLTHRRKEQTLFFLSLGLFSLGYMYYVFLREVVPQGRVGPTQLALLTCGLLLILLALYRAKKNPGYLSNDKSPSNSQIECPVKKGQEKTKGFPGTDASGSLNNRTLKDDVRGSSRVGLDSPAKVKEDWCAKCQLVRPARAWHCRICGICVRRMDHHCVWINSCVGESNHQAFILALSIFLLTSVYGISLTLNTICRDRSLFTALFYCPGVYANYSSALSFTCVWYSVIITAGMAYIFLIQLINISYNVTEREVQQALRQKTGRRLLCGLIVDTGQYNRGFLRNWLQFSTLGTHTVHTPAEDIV

[3] = molecular target: HA-Zdhhc5 (mouse, wild type, full length) (mouse) (UniProt Q8VDZ4)
[4] = molecular target: T3, HA-Zdhhc6 (mouse) (mouse) (UniProt Q9CPV7)
T3 sequence: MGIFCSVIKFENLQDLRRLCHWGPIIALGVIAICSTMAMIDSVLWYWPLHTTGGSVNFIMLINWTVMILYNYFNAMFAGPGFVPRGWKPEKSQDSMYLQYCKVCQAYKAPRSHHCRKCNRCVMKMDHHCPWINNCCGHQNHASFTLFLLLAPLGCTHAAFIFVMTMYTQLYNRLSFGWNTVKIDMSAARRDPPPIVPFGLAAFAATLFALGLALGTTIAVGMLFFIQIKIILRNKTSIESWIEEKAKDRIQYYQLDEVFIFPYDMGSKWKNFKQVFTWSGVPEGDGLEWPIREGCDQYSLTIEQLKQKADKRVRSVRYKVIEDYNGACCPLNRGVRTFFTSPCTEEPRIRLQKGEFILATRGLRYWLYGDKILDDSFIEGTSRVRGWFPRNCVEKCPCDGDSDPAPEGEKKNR

[5] = molecular target: T4, Zdhhc19^RNYR (mouse) (UniProt Q810M5)
T4 sequence: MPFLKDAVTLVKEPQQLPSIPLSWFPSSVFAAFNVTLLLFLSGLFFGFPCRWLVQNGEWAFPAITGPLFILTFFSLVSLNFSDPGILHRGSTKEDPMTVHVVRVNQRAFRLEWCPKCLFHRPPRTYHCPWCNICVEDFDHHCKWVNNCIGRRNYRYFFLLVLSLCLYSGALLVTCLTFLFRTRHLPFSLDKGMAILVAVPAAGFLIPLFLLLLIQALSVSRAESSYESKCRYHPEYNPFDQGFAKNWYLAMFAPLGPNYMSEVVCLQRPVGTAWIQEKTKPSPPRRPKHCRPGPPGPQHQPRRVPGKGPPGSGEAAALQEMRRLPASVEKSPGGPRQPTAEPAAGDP

[6] = molecular target: T5, Zdhhc4^RNYR (mouse) (UniProt Q9D6H5)
T5 sequence: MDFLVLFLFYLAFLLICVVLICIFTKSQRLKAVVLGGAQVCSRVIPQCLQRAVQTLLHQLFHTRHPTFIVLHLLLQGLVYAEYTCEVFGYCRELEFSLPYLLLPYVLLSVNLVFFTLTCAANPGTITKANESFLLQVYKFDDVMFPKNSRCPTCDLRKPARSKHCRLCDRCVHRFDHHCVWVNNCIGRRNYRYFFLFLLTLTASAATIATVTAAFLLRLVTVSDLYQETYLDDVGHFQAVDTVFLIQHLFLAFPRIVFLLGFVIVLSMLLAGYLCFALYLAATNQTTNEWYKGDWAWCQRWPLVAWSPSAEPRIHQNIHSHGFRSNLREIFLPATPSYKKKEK

[7] = molecular target: Zdhhc5^RNAA (Tyr146Ala, Arg147Ala) (mouse) (UniProt Q8VDZ4)

binding [1]: no binding
binding [2]: no binding
binding [3]: binds
binding [4]: no binding
binding [5]: no binding
binding [6]: no binding
binding [7]: no binding
Substance: endogenous human GOLGA7 (from UniProt Q7Z5G4 1-137)
